Laboratory results published in the supplement of paper PMC9744312.
Structures can show the parent of a compound that is named as a salt. The list shows a part of the results. The data scatter; read single values as rough.

test system: Peyronie's disease tunica albuginea primary fibroblasts; test: inhibition of TGF-beta1-induced alpha-SMA expression (myofibroblast transformation), relative to TGF-beta1-only and untreated controls; higher = stronger inhibition of myofibroblast transformation; conditions: 10 µM; TGF-beta1 10 ng/mL; 72 h

Structure (SMILES)	inhibition of TGF-beta1-induced alpha-SMA expression [%]
CN1CCCC(n2nc(Cc3ccc(Cl)cc3)c3ccccc3c2=O)CC1 (configuration not stated) [Azelastine HCl]	57
C=C=CCNC(=O)c1ccc(F)cc1 [Diastase]	-16.3
CCN1CCN(C(=O)N[C@@H](C(=O)N[C@@H]2C(=O)N3[C@@H]2SC(C)(C)[C@@H]3C(=O)O)c2ccccc2)C(=O)C1=O [Piperacillin Sodium]	4.89
CO[C@@H]1[C@@H](OC(N)=O)[C@@H](O)[C@H](Oc2ccc3c(O)c(NC(=O)c4ccc(O)c(CC=C(C)C)c4)c(=O)oc3c2C)OC1(C)C [Novobiocin Sodium]	23.1
CN(C)[C@@H]1C(O)=C(C(N)=O)C(=O)[C@@]2(O)C(O)=C3C(=O)c4c(O)ccc(Cl)c4[C@@H](O)[C@H]3C[C@@H]12 [Demeclocycline HCl]	-9.39
CCC1(c2c[nH]cn2)Cc2ccccc2C1 [Atipamezole]	6.42
CCC1(c2c[nH]cn2)Cc2ccccc2C1 [Atipamezole hydrochloride]	29.1
Cn1c([N+](=O)[O-])cnc1COC(N)=O [Ronidazole]	-0.85
CCN(c1cc(-c2ccc(CN3CCOCC3)cc2)cc(C(=O)NCc2c(C)cc(C)[nH]c2=O)c1C)C1CCOCC1 [Tazemetostat (EPZ-6438)]	31.5
COc1ccc(C(=O)NCc2ccc(OCCN(C)C)cc2)cc1OC [Itopride hydrochloride]	18.7
CCCCCCCCN=c1ccn(CCCCCCCCCCn2ccc(=NCCCCCCCC)cc2)cc1 [Octenidine Dihydrochloride]	> 100
N[C@@H](C(=O)N[C@@H]1C(=O)N2C(C(=O)O)=C(Cl)CS[C@H]12)c1ccccc1 [Cefaclor]	-1.04
CC[C@@H]1/C=C(\C)C[C@H](C)C[C@H](OC)[C@H]2O[C@@](O)(C(=O)C(=O)N3CCCC[C@H]3C(=O)O[C@H](/C(C)=C/[C@@H]3CC[C@H](Cl)[C@H](OC)C3)[C@H](C)[C@@H](O)CC1=O)[C@H](C)C[C@@H]2OC [Pimecrolimus]	15.6
OC[C@H]1O[C@@H](O[C@@H]2[C@@H](CO)OC(O)(CO)[C@H]2O)[C@H](O)[C@@H](O)[C@H]1O (mixture of isomers) [Lactulose]	-4.68
CCCCCCCCCC(=O)N[C@H]1[C@H](Oc2c3cc4cc2Oc2ccc(cc2Cl)[C@@H](O[C@@H]2O[C@H](CO)[C@@H](O)[C@H](O)[C@H]2NC(C)=O)[C@@H]2NC(=O)[C@H](NC(=O)[C@@H]4NC(=O)[C@H]4NC(=O)[C@@H](Cc5ccc(c(Cl)c5)O3)NC(=O)[C@H](N)c3ccc(O)c(c3)Oc3cc(O)cc4c3)c3ccc(O)c(c3)-c3c(OC4O[C@H](CO)[C@@H](O)[C@H](O)[C@@H]4O)cc(O)cc3[C@@H](C(=O)O)NC2=O)O[C@H](CO)[C@@H](O)[C@@H]1O (some centres not stated) [Teicoplanin]	15.5
C[C@H](Oc1cc(-c2cnn(C3CCNCC3)c2)cnc1N)c1c(Cl)ccc(F)c1Cl [(S)-crizotinib]	> 100
Brc1c(NC2=NCCN2)ccc2nccnc12 [Brimonidine Tartrate]	-15.5
CN(C)CCOC(=O)COc1ccc(Cl)cc1 [Meclofenoxate (Centrophenoxine) HCl]	5.8
O=C(OCc1ccccc1)c1ccccc1 [Benzyl benzoate]	-0.889
CCCc1nc(C(C)(C)O)c(C(=O)O)n1Cc1ccc(-c2ccccc2-c2nnn[nH]2)cc1 [Olmesartan]	17.2
N=C(N)N/N=C/c1c(Cl)cccc1Cl [Guanabenz Acetate]	41.8

Some of the entries above, reformatted.
Structure (SMILES),inhibition of TGF-beta1-induced alpha-SMA expression [%]
CCN1CCN(C(=O)N[C@@H](C(=O)N[C@@H]2C(=O)N3[C@@H]2SC(C)(C)[C@@H]3C(=O)O)c2ccccc2)C(=O)C1=O [Piperacillin Sodium],4.89
CO[C@@H]1[C@@H](OC(N)=O)[C@@H](O)[C@H](Oc2ccc3c(O)c(NC(=O)c4ccc(O)c(CC=C(C)C)c4)c(=O)oc3c2C)OC1(C)C [Novobiocin Sodium],23.1
CN(C)[C@@H]1C(O)=C(C(N)=O)C(=O)[C@@]2(O)C(O)=C3C(=O)c4c(O)ccc(Cl)c4[C@@H](O)[C@H]3C[C@@H]12 [Demeclocycline HCl],-9.39

Carrying on.

Structure (SMILES)	inhibition of TGF-beta1-induced alpha-SMA expression [%]
Cc1ccc2c(Cl)cc(Cl)c(O)c2n1 [Chlorquinaldol]	-54.6
OC(CCN1CCCCC1)(c1ccccc1)C1CCCCC1 (configuration not stated) [Trihexyphenidyl hydrochloride]	19.6
CN(CCOc1ccc(CC2SC(=O)NC2=O)cc1)c1ccccn1 (configuration not stated) [Rosiglitazone HCl]	-31.8
CN(CCOc1ccc(CC2SC(=O)NC2=O)cc1)c1ccccn1 (configuration not stated) [Rosiglitazone]	7.83
CN(CCOc1ccc(CC2SC(=O)NC2=O)cc1)c1ccccn1 (configuration not stated) [Rosiglitazone maleate]	39.5
C=C[C@@H]1C[C@]1(NC(=O)[C@@H]1C[C@@H](Oc2ncc(OC)c3ccc(Cl)cc23)CN1C(=O)[C@@H](NC(=O)OC(C)(C)C)C(C)(C)C)C(=O)NS(=O)(=O)C1CC1 [Asunaprevir]	1.94
COc1ccc(C[C@@H]2c3cc(OC)c(OC)cc3CC[N@+]2(C)CCC(=O)OCCCCCOC(=O)CC[N@@+]2(C)CCc3cc(OC)c(OC)cc3[C@H]2Cc2ccc(OC)c(OC)c2)cc1OC [Cisatracurium Besylate]	18.9
CCOC(=O)c1c(C)n(C)c2ccc(O)cc12 [Mecarbinate]	34.1
N#Cc1ccc(Oc2ccc3c(c2)COB3O)cc1 [Crisaborole (AN2728)]	32.7
CC(N)C12CC3CC(CC(C3)C1)C2 (configuration not stated) [Rimantadine]	12.8
CC(N)C12CC3CC(CC(C3)C1)C2 (configuration not stated) [Rimantadine Hydrochloride]	16
O=C(NS(=O)(=O)c1ccc(Br)s1)c1ccc(Cl)cc1Cl [Tasisulam]	2.01
OCCOCCN1CCN(C(c2ccccc2)c2ccc(Cl)cc2)CC1 (configuration not stated) [Hydroxyzine 2HCl]	59.6
OCCOCCN1CCN(C(c2ccccc2)c2ccc(Cl)cc2)CC1 (configuration not stated) [Hydroxyzine pamoate]	86.7
C=CC1=C(C(=O)O)N2C(=O)[C@@H](NC(=O)/C(=N\OCC(=O)O)c3csc(N)n3)[C@H]2SC1 [Cefixime]	-40.6
Cc1cc(-n2c(=O)[nH]c(=O)n(C)c2=O)ccc1Oc1ccc(SC(F)(F)F)cc1 [Toltrazuril]	-3.27
Cc1ccccc1N1C(=O)c2cc(S(N)(=O)=O)c(Cl)cc2NC1C (configuration not stated) [Metolazone]	-2.08
[I-].[K+] [Potassium Iodide]	-2.66
COc1ccc2[nH]c([S+]([O-])Cc3ncc(C)c(OC)c3C)nc2c1 (configuration not stated) [Omeprazole]	14
O=C1/C(=C2\Nc3ccccc3C2=O)Nc2ccccc21 [Indigo]	28.6
Nc1cccc2c1CN(C1CCC(=O)NC1=O)C2=O (configuration not stated) [Lenalidomide (CC-5013)]	-0.869
